{"source": "paper doi:10.1101/2022.07.11.499655", "binders": {"B1": {"name": "JunB (protein, UniProt P17275 1-347)", "chain": "MCTKMEQPFYHDDSYTATGYGRAPGGLSLHDYKLLKPSLAVNLADPYRSLKAPGARGPGPEGGGGGSYFSGQGSDTGASLKLASSELERLIVPNSNGVITTTPTPPGQYFYPRGGGSGGGAGGAGGGVTEEQEGFADGFVKALDDLHKMNHVTPPNVSLGATGGPPAGPGGVYAGPEPPPVYTNLSSYSPASASSGGAGAAVGTGSSYPTTTISYLPHAPPFAGGHPAQLGLGRGASTFKEEPQTVPEARSRDATPPVSPINMEDQERIKVERKRLRNRLAATKCRKRKLERIARLEDKVKTLKAENAGLSSTAGLLREQVAQLKQKVMTHVSNGCQLLLGVKGHAF"}, "B2": {"name": "JunD (protein, UniProt P17535 1-347)", "chain": "METPFYGDEALSGLGGGASGSGGSFASPGRLFPGAPPTAAAGSMMKKDALTLSLSEQVAAALKPAAAPPPTPLRADGAPSAAPPDGLLASPDLGLLKLASPELERLIIQSNGLVTTTPTSSQFLYPKVAASEEQEFAEGFVKALEDLHKQNQLGAGAAAAAAAAAAGGPSGTATGSAPPGELAPAAAAPEAPVYANLSSYAGGAGGAGGAATVAFAAEPVPFPPPPPPGALGPPRLAALKDEPQTVPDVPSFGESPPLSPIDMDTQERIKAERKRLRNRIAASKCRKRKLERISRLEEKVKTLKSQNTELASTASLLREQVAQLKQKVLSHVNSGCQLLPQHQVPAY"}}, "target": "NCOR2-013 (Flag-tagged), truncated protein of NCOR2/SMRT (human)", "assay": "co-IP", "note": "These are yes or no findings as the source states them, for the method shown. Binding seen in cells or lysates may run through a third protein. Binding can be weak; no strength is given.", "data": [{"binder": "B1", "values": [{"measurement": "binding", "result": "binds"}]}, {"binder": "B2", "values": [{"measurement": "binding", "result": "no binding"}]}]}
